# Drug screen on melanoma cell lines: cell count

Source: doi:10.1371/journal.pone.0140310, primary screening data, rounded.

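Human melanoma cells were exposed to two drugs together for 72 h in 1,536-well plates and read by automated microscopy after fixing and staining. Each value is the count of nuclei relative to DMSO-treated wells, in %, so that 100 equals the control. Concentrations were fixed for each drug; these are the lower of two levels, a fifth of the higher. These are primary screening values without error estimates.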 An unselected part of the screen is shown.

Every entry is a combination with vismodegib at 1 µM: CS(=O)(=O)c1ccc(C(=O)Nc2ccc(Cl)c(-c3ccccn3)c2)c(Cl)c1

| Partner | MEL-HO |
|---|---|
| NC(=O)c1ccc(N(C(N)=O)c2c(F)cccc2F)nc1-c1ccc(F)cc1F at 0.4 µM | 107 |
| OCc1c[nH]c2ccccc12 at 0.8 µM | 104 |
| COCC[n+]1c2c(n(Cc3cnccn3)c1C)C(=O)c1ccccc1C2=O at 0.0004 µM | 105 |
| CC(=O)O[C@@]12CO[C@@H]1C[C@H](O)[C@@]1(C)C(=O)[C@H](O)C3=C(C)[C@@H](OC(=O)[C@H](O)[C@@H](NC(=O)OC(C)(C)C)c4ccccc4)C[C@@](O)([C@@H](OC(=O)c4ccccc4)[C@H]21)C3(C)C at 0.0001 µM | 70.4 |
| Nc1nc(F)nc2c1ncn2[C@@H]1O[C@H](CO)[C@@H](O)[C@@H]1O at 0.2 µM | 98.6 |
| C[As](C)SC[C@H](NC(=O)CC[C@H](N)C(=O)O)C(=O)NCC(=O)O at 0.4 µM | 93.2 |
| CO[C@H]1C[C@@H]2CC[C@@H](C)[C@@](O)(O2)C(=O)C(=O)N2CCCC[C@H]2C(=O)O[C@H]([C@H](C)C[C@@H]2CC[C@@H](OCCO)[C@H](OC)C2)CC(=O)[C@H](C)/C=C(\C)[C@@H](O)[C@@H](OC)C(=O)[C@H](C)C[C@H](C)/C=C/C=C/C=C/1C at 0.02 µM | 67.9 |
| Cn1cnc2c(F)c(Nc3ccc(Br)cc3Cl)c(C(=O)NOCCO)cc21 at 0.015 µM | 80.1 |
| CN1CCN(c2ccc3nc(-c4c(N)c5c(F)cccc5[nH]c4=O)[nH]c3c2)CC1 at 0.1 µM | 100 |
| CC(C)C[C@H](NC(=O)[C@H](Cc1ccccc1)NC(=O)c1cnccn1)B(O)O at 0.001 µM | 94.5 |
| Cc1cc(SCc2sc(-c3ccc(C(F)(F)F)c(F)c3)nc2C)ccc1OCC(=O)O at 2 µM | 109 |
| COc1cc([C@@H]2c3cc4c(cc3[C@@H](O[C@@H]3O[C@@H]5CO[C@@H](C)O[C@H]5[C@H](O)[C@H]3O)[C@H]3COC(=O)[C@H]23)OCO4)cc(OC)c1O at 0.02 µM | 97.0 |
| CCCS(=O)(=O)Nc1ccc(F)c(C(=O)c2c[nH]c3ncc(Cl)cc23)c1F at 0.08 µM | 87.2 |
| Cc1cn(-c2cc(NC(=O)c3ccc(C)c(Nc4nccc(-c5cccnc5)n4)c3)cc(C(F)(F)F)c2)cn1 at 0.2 µM | 112 |
| C#Cc1cccc(Nc2ncnc3cc(OCCOC)c(OCCOC)cc23)c1 at 0.8 µM | 106 |
| CCCCCCCCc1ccc(CCC(N)(CO)CO)cc1 at 2 µM | 101 |

For reference, 2 entries once more:

* Nc1nc(F)nc2c1ncn2[C@@H]1O[C@H](CO)[C@@H](O)[C@@H]1O at 0.2 µM | MEL-HO: 98.6
* CC(C)C[C@H](NC(=O)[C@H](Cc1ccccc1)NC(=O)c1cnccn1)B(O)O at 0.001 µM | MEL-HO: 94.5